Values quoted from earlier work in patent publication US12215162B2, “BAFF-R targeted chimeric antigen receptor-modified T-cells and uses thereof” (CITY OF HOPE, priority 2016, dated 2025).
For at least one compound, name, drawing or mass did not settle the structure.

Experiments:
[1] = tested on: SP49-IR; details: cited from earlier work
[2] = tested on: SP49; details: parental SP49; cited from earlier work

C=CC(=O)N1CCC[C@@H](n2nc(-c3ccc(Oc4ccccc4)cc3)c3c(N)ncnc32)C1 [ibrutinib]
IC50 [1]: > 100 nM
IC50 [2]: 5 nM
